Measured values as given in US11096979B2, “Pharmaceutical composition for preventing or treating liver diseases, containing licorice extract containing glycyrrhizin and liquiritin” (NOVAREX CO., LTD., priority 2016, dated 2021).
Some results were stated once for a whole list of compounds, not compound by compound. At least one structure is not confirmed: it was looked up by name or label, or the drawing left a doubt.

System: cultured hepatocytes (HepG2)
Assay: Cell viability of HepG2 cells treated with single components or t-BHP
Settings: HepG2, component at 100 μM

Work on O=C1C[C@@H](c2ccc(O)cc2)Oc2cc(O)ccc21 [liquiritigenin] yielded a cell viability of at least 95%.
